These are yes or no findings as the source states them, for the method shown. In cells and extracts the contact can be indirect. Some entries that bind do so weakly or less than the wild type. For some of these results: Where a sequence is shown, tags or fusion partners need not be part of it.
How the values were obtained:
Assay in all cases: co-IP
[1] = target: DsRed2-CCDC47TM^MYC (human) (UniProt Q96A33)
[2] = target: T1, DsRed2-CCDC47_(full)^MYC (human) (UniProt Q96A33)
T1 sequence: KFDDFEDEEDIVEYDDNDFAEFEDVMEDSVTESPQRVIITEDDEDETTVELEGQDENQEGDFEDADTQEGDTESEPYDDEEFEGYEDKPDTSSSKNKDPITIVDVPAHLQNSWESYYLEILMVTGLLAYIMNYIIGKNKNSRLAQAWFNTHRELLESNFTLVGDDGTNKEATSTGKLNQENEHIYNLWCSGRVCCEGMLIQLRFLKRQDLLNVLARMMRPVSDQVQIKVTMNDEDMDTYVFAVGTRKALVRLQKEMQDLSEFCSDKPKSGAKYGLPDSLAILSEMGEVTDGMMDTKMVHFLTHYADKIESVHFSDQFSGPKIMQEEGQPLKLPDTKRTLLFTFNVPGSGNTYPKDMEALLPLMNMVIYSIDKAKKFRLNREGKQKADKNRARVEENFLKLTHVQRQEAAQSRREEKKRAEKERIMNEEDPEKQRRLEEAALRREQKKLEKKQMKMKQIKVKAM

Protein sequences, listed by entry. Tags and fused reporters are not part of them. Residues count along the entry.
UniProt Q13586, residues 23-685: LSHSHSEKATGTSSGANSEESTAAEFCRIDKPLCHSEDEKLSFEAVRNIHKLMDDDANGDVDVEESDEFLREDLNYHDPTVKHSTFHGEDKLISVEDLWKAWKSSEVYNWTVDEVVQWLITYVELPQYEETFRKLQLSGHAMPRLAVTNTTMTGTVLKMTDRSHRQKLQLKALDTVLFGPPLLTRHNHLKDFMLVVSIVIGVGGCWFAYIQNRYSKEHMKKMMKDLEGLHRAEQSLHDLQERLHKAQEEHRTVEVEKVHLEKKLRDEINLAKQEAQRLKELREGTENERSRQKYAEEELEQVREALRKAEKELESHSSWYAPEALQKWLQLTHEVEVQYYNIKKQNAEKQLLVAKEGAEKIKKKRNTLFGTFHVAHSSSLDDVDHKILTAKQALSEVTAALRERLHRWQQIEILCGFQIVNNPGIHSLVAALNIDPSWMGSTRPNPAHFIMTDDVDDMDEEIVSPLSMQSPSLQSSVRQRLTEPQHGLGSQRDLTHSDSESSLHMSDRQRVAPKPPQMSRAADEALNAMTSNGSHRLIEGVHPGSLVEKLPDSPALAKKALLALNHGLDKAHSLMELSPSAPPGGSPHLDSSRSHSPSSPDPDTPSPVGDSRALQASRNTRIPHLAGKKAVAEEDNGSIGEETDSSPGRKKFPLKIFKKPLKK

[3] = target: DsRed2-CCDC47_(ΔG+ΔCC)^MYC (human) (UniProt Q96A33)
[4] = target: DsRed2-CCDC47ΔCC^MYC (human) (UniProt Q96A33)

Measured: binding

STIM1^mCherry (from UniProt Q13586 23-685)
binds: [1] | [2] | [3] | [4]
